In the supplement of paper PMC11006884:
The list shows a part of the results, in another mix than the full data.

Chains of the proteins cited; added tags and fusions are not shown. Lines headed by an entry give the natural chain unless they say otherwise; changes in a name come on top.
UniProt O95347, whole entry, looked up: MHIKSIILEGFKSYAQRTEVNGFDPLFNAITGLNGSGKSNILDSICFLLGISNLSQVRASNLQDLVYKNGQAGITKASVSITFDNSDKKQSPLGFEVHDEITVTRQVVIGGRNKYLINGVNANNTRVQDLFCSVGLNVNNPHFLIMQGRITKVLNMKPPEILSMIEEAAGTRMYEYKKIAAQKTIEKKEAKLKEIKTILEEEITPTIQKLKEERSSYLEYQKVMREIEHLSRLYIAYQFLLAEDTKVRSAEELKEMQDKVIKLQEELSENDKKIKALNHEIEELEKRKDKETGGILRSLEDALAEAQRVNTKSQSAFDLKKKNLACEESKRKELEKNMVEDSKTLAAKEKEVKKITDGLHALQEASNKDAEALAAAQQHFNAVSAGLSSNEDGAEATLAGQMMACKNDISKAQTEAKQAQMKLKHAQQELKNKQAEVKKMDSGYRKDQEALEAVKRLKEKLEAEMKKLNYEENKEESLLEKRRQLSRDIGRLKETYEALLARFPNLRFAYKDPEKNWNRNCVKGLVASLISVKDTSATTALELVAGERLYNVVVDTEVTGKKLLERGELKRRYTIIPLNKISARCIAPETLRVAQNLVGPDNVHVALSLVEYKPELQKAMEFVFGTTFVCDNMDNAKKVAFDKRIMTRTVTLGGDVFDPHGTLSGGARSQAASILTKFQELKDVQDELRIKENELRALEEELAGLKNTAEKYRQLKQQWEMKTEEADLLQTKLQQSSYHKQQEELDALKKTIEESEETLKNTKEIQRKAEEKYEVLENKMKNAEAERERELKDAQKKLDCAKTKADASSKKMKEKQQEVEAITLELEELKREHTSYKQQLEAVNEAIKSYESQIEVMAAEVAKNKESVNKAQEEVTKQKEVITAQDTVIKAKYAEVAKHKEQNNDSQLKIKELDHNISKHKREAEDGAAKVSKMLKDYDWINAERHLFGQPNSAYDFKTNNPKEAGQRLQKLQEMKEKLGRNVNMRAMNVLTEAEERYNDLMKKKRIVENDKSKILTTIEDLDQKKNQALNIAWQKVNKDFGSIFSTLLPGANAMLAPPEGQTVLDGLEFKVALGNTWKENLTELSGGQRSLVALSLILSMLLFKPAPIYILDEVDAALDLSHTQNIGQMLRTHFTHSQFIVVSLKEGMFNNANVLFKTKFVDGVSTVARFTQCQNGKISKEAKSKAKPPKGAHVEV
UniProt P02545: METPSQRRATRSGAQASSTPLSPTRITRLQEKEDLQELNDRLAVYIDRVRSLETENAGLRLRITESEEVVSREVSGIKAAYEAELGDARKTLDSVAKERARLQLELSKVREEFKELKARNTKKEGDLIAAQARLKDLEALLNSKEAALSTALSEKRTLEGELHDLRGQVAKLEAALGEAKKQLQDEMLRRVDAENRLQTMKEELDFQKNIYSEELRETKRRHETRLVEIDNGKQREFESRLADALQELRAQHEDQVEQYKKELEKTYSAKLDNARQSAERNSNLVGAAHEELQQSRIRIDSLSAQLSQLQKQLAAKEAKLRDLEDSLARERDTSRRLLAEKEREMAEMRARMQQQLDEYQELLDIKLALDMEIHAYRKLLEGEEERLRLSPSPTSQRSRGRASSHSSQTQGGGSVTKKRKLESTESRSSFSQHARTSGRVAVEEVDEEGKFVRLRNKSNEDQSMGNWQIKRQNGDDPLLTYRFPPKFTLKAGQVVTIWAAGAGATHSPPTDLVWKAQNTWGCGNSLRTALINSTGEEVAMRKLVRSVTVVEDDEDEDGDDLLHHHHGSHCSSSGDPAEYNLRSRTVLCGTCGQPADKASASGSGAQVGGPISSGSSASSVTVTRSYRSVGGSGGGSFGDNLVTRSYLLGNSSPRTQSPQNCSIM
UniProt O95487: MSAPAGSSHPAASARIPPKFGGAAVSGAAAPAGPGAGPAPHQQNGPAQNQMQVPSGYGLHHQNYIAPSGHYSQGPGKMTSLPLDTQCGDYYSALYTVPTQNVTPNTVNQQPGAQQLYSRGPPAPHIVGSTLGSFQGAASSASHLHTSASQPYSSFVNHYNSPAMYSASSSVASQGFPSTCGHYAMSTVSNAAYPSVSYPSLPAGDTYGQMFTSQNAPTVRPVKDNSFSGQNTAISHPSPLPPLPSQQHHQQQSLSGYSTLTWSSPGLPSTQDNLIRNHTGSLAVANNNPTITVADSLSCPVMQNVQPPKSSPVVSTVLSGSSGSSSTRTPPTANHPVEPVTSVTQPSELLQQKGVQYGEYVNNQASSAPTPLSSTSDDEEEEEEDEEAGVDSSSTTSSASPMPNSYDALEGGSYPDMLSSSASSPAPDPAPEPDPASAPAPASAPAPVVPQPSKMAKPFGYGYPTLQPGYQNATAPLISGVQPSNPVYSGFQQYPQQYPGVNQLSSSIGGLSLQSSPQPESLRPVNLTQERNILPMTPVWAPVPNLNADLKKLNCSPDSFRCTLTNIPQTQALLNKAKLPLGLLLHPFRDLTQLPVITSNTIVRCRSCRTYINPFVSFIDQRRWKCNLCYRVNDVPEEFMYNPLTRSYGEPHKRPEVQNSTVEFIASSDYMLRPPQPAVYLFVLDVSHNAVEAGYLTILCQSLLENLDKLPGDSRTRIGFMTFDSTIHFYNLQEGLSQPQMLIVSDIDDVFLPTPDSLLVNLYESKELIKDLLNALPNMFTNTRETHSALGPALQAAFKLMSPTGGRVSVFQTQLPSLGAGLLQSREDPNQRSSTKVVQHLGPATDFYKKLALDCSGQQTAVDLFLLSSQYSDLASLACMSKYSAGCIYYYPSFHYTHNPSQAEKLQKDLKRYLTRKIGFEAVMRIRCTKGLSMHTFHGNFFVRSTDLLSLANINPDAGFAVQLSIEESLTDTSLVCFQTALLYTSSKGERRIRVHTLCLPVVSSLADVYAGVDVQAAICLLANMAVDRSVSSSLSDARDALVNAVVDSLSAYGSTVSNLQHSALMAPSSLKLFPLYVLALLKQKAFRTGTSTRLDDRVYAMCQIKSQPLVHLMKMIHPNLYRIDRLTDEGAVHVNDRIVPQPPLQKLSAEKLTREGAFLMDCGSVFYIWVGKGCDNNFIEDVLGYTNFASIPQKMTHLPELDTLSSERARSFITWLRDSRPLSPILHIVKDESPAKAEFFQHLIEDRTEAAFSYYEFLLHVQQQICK
UniProt O96006: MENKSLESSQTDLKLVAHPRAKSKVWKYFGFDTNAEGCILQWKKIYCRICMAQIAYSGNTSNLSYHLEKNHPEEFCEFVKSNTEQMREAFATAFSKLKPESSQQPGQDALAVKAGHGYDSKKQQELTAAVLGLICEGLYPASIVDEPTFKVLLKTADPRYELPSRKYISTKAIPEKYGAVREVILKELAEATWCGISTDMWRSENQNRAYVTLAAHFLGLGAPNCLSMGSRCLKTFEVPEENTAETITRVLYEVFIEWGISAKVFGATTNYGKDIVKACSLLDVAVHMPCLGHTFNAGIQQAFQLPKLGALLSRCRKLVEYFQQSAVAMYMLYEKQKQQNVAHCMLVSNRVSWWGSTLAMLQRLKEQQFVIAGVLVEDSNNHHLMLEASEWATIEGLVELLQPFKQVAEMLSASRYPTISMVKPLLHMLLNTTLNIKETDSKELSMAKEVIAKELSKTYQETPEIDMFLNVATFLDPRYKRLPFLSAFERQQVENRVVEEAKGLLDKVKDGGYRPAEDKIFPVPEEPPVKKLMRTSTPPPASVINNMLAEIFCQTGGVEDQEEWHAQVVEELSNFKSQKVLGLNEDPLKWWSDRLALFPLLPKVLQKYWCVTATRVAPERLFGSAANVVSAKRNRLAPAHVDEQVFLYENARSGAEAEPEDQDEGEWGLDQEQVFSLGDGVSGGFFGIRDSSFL
UniProt O95835: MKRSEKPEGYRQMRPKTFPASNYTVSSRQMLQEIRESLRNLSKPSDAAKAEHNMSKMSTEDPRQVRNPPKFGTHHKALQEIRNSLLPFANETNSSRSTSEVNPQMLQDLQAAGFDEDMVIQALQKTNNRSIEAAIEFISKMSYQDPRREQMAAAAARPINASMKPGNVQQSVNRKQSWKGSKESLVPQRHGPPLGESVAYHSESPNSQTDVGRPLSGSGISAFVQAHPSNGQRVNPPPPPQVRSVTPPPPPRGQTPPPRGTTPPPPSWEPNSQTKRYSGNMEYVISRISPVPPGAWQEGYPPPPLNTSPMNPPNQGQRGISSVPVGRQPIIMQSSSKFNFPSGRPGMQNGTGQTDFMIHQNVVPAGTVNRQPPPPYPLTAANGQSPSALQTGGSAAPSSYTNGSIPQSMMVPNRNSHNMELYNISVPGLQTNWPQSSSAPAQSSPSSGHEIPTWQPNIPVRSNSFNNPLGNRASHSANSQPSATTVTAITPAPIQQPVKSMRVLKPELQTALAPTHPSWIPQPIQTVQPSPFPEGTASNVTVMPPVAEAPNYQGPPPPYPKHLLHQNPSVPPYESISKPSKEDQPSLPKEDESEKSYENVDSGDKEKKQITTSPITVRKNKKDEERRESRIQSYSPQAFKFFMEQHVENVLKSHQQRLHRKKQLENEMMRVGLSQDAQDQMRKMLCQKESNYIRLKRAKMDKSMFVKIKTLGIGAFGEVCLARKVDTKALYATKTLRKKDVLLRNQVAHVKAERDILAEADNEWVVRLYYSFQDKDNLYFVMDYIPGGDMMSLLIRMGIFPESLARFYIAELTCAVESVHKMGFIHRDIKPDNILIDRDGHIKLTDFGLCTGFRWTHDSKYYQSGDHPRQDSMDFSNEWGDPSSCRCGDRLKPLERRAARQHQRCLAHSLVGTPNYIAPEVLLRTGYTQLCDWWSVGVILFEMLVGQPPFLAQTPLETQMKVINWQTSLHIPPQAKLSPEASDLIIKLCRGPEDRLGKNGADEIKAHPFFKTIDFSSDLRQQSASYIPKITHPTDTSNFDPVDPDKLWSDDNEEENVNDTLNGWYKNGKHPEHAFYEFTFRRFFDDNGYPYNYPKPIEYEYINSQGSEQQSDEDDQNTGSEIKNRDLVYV
UniProt P04080: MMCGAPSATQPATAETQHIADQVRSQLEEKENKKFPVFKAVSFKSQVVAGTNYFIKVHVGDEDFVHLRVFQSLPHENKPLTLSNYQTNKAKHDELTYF
UniProt P07814: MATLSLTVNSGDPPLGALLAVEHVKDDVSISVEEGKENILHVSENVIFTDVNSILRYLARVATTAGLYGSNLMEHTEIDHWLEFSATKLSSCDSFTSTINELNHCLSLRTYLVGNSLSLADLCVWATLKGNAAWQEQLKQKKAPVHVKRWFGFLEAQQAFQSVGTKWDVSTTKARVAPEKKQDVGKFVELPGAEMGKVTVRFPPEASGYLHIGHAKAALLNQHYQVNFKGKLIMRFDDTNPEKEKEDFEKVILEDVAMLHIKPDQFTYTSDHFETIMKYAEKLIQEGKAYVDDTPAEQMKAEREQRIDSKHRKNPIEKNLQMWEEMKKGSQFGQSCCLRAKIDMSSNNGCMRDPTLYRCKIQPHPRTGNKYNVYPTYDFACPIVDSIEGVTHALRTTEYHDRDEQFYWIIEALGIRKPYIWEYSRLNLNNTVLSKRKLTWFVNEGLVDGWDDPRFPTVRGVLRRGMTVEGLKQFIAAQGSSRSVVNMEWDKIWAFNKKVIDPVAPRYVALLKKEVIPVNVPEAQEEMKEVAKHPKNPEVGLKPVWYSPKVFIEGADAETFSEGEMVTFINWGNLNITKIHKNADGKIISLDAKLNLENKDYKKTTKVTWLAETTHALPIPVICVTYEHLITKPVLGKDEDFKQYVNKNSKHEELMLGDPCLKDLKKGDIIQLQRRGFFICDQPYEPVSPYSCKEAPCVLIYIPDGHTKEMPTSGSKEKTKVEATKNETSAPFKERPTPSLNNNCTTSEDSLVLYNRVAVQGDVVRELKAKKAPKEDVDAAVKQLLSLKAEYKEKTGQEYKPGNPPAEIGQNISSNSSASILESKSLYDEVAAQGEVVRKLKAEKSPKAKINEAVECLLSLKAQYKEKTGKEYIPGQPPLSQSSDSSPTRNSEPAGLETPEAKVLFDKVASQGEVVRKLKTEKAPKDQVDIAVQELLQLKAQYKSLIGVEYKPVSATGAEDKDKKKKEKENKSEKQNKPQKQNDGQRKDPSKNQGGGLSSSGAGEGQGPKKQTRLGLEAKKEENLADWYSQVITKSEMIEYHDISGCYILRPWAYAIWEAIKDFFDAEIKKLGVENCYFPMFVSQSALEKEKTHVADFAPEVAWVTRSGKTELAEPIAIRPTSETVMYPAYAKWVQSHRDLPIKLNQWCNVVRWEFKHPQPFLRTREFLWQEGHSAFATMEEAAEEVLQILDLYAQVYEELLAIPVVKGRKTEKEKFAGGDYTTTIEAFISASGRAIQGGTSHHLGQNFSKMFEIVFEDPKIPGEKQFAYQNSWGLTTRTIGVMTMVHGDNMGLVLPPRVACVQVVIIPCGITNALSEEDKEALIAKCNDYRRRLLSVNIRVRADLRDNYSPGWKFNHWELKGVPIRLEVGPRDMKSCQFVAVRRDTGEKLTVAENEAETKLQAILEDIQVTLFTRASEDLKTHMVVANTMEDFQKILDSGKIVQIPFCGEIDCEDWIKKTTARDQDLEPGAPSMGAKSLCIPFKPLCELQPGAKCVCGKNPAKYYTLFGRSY

compound: COC(=O)C#Cc1ccccc1 [methyl 3-phenylpropiolate]; experiment: log2 ratio of iodoacetamide-alkyne labeling of the cysteine site, DMSO over compound (competition); higher = stronger covalent engagement of the cysteine by the compound, active = 1 or more; settings: 500 µM; treatment time 1 h; system: HEK293T cell lysate
Summary of the method: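 For each cysteine, the log2 competition ratio is mean control-channel reporter intensity over mean compound-channel reporter intensity. HEK293T lysate (2 mg/mL) was exposed to vehicle or electrophile (500 µM, 1 h, ambient temperature), labelled with iodoacetamide alkyne (1 h), clicked to sCIP-TMT reagents, digested overnight with trypsin at 37 °C, streptavidin-enriched and analysed by Orbitrap Eclipse LC-MS/MS with FAIMS and FragPipe. Cysteines quantified in only one of three replicates, each with duplicate channels, were excluded.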

log2 ratio of iodoacetamide-alkyne labeling, inactive:
UniProt O95071_C2314 0.482
PPP1R3D C291 (UniProt O95685) 0.488
GOT2 C106 (UniProt P00505) 0.421
UniProt O95382_C16 0.407
EIF4E C170 (UniProt P06730) 0.211
ANXA2 C9 (UniProt P07355) 0.243
TK1 C206 (UniProt P04183) 0.42
AIFM1 C256 (UniProt O95831) -0.283
UniProt P07437_C129 0.192
UniProt P07437_C12 0.57
RPLP0 C226 (UniProt P05388) 0.239
UniProt O95232_C43 0.186
SMC2 C1174 (UniProt O95347) 0.555
ACSL3 C450 (UniProt O95573) 0.0397
LMNA C522 (UniProt P02545) 0.111
AIFM1 C441 (UniProt O95831) 0.0687
GLS C525 (UniProt O94925) 0.324
UniProt O95319_C174 0.0243
SEC24B C562 (UniProt O95487) 0.735
SMC2 C132 (UniProt O95347) 0.137
ZBED1 C76 (UniProt O96006) 0.438
SMC2 C585 (UniProt O95347) 0.258
SMC2 C326 (UniProt O95347) 0.547
POLR1A C822 (UniProt O95602) -0.0124
LATS1 C885 (UniProt O95835) 0.423
ZFPL1 C230 (UniProt O95159) 0.347
CAPN1 C115 (UniProt P07384) 0.0571
STAMBP C264 (UniProt O95630) 0.0695
UniProt P04350_C12 0.496
UniProt O96028_C1315 0.0805
UniProt O96017_C385 0.227
KIF4A C269 (UniProt O95239) 0.0303
CSTB C3 (UniProt P04080) 0.661
UniProt O95758_C68 0.0841
EPRS C1448 (UniProt P07814) 0.152
CD2BP2 C234 (UniProt O95400) -0.0767
GLUD1 C327 (UniProt P00367) 0.248

Three consecutive entries from above:
log2 ratio of iodoacetamide-alkyne labeling, inactive:
SMC2 C585 (UniProt O95347) 0.258
SMC2 C326 (UniProt O95347) 0.547
POLR1A C822 (UniProt O95602) -0.0124
